Laboratory results as given in PMC12059312.
Results are given in words; binding and its absence hold for the method and conditions named. In cells and extracts the contact can be indirect. Some results given as binding are weak or reduced against the parent protein; the word gives no strength.

Target: T1, CDCA7 (human (endogenous in human primary chondrocytes)) (UniProt Q9BWT1)
T1 sequence: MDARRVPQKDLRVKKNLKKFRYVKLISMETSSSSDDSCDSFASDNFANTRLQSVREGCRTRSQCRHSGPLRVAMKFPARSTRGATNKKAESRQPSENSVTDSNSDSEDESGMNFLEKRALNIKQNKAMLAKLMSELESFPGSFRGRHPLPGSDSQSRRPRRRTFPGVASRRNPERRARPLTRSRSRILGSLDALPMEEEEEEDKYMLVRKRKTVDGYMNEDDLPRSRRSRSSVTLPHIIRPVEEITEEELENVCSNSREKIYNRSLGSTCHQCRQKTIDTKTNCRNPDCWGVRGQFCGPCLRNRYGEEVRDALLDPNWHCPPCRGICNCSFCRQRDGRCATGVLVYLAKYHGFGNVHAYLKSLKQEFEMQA
Experiment: co-IP; CDCA7 as bait protein; human primary chondrocytes exposed to or not to 20% CTS loading for 24 h

binding: binds
B1: lymphoid-specific helicase (HELLS) (protein, UniProt Q9NRZ9 1-838)
chain: MPAERPAGSGGSEAPAMVEQLDTAVITPAMLEEEEQLEAAGLERERKMLEKARMSWDRESTEIRYRRLQHLLEKSNIYSKFLLTKMEQQQLEEQKKKEKLERKKESLKVKKGKNSIDASEEKPVMRKKRGREDESYNISEVMSKEEILSVAKKNKKENEDENSSSTNLCVEDLQKNKDSNSIIKDRLSETVRQNTKFFFDPVRKCNGQPVPFQQPKHFTGGVMRWYQVEGMEWLRMLWENGINGILADEMGLGKTVQCIATIALMIQRGVPGPFLVCGPLSTLPNWMAEFKRFTPDIPTMLYHGTQEERQKLVRNIYKRKGTLQIHPVVITSFEIAMRDRNALQHCYWKYLIVDEGHRIKNMKCRLIRELKRFNADNKLLLTGTPLQNNLSELWSLLNFLLPDVFDDLKSFESWFDITSLSETAEDIIAKEREQNVLHMLHQILTPFLLRRLKSDVALEVPPKREVVVYAPLSKKQEIFYTAIVNRTIANMFGSSEKETIELSPTGRPKRRTRKSINYSKIDDFPNELEKLISQIQPEVDRERAVVEVNIPVESEVNLKLQNIMMLLRKCCNHPYLIEYPIDPVTQEFKIDEELVTNSGKFLILDRMLPELKKRGHKVLLFSQMTSMLDILMDYCHLRDFNFSRLDGSMSYSEREKNMHSFNTDPEVFIFLVSTRAGGLGINLTAADTVIIYDSDWNPQSDLQAQDRCHRIGQTKPVVVYRLVTANTIDQKIVERAAAKRKLEKLIIHKNHFKGGQSGLNLSKNFLDPKELMELLKSRDYEREIKGSREKVISDKDLELLLDRSDLIDQMNASGPIKEKMGIFKILENSEDSSPECLF
